Experimental data: article PMC11412891
Results are given in words; binding and its absence hold for the method and conditions named. Binding seen in cells or lysates may run through a third protein. Some results given as binding are weak or reduced against the parent protein; the word gives no strength. Sequences can lack the tags named with a protein.

Protein sequences, listed by entry. Tags and fused reporters are not part of them.
UniProt Q13409: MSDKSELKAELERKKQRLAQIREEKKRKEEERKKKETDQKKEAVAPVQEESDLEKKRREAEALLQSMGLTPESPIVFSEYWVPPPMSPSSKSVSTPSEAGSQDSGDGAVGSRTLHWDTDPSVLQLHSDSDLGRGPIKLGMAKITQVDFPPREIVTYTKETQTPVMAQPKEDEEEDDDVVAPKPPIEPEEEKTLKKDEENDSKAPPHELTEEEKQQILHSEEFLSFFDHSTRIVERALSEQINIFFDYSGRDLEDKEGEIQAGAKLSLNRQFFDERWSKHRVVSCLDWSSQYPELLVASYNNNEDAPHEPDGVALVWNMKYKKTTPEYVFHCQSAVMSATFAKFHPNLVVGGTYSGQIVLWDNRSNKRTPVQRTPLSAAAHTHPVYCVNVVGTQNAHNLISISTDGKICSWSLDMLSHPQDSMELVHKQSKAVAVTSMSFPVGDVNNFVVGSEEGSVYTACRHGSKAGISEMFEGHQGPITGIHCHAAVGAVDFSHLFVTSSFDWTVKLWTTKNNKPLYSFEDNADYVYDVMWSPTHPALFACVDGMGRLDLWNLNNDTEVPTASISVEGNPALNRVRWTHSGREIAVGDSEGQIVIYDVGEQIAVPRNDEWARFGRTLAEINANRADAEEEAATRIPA
UniProt Q13123: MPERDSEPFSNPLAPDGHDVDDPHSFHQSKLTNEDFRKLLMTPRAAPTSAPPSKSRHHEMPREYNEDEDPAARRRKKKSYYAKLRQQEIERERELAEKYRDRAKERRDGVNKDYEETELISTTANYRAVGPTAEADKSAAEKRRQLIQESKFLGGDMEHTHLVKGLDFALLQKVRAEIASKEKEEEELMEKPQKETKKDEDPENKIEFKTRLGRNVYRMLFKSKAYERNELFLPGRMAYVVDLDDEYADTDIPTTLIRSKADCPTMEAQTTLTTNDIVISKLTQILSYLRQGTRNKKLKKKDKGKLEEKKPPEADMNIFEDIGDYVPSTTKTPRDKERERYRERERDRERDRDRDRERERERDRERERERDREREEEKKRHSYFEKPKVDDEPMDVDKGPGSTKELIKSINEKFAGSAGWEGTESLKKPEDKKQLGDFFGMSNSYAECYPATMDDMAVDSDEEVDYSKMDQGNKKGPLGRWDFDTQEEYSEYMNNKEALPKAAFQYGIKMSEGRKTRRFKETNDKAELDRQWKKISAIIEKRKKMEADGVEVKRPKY
UniProt Q96T58: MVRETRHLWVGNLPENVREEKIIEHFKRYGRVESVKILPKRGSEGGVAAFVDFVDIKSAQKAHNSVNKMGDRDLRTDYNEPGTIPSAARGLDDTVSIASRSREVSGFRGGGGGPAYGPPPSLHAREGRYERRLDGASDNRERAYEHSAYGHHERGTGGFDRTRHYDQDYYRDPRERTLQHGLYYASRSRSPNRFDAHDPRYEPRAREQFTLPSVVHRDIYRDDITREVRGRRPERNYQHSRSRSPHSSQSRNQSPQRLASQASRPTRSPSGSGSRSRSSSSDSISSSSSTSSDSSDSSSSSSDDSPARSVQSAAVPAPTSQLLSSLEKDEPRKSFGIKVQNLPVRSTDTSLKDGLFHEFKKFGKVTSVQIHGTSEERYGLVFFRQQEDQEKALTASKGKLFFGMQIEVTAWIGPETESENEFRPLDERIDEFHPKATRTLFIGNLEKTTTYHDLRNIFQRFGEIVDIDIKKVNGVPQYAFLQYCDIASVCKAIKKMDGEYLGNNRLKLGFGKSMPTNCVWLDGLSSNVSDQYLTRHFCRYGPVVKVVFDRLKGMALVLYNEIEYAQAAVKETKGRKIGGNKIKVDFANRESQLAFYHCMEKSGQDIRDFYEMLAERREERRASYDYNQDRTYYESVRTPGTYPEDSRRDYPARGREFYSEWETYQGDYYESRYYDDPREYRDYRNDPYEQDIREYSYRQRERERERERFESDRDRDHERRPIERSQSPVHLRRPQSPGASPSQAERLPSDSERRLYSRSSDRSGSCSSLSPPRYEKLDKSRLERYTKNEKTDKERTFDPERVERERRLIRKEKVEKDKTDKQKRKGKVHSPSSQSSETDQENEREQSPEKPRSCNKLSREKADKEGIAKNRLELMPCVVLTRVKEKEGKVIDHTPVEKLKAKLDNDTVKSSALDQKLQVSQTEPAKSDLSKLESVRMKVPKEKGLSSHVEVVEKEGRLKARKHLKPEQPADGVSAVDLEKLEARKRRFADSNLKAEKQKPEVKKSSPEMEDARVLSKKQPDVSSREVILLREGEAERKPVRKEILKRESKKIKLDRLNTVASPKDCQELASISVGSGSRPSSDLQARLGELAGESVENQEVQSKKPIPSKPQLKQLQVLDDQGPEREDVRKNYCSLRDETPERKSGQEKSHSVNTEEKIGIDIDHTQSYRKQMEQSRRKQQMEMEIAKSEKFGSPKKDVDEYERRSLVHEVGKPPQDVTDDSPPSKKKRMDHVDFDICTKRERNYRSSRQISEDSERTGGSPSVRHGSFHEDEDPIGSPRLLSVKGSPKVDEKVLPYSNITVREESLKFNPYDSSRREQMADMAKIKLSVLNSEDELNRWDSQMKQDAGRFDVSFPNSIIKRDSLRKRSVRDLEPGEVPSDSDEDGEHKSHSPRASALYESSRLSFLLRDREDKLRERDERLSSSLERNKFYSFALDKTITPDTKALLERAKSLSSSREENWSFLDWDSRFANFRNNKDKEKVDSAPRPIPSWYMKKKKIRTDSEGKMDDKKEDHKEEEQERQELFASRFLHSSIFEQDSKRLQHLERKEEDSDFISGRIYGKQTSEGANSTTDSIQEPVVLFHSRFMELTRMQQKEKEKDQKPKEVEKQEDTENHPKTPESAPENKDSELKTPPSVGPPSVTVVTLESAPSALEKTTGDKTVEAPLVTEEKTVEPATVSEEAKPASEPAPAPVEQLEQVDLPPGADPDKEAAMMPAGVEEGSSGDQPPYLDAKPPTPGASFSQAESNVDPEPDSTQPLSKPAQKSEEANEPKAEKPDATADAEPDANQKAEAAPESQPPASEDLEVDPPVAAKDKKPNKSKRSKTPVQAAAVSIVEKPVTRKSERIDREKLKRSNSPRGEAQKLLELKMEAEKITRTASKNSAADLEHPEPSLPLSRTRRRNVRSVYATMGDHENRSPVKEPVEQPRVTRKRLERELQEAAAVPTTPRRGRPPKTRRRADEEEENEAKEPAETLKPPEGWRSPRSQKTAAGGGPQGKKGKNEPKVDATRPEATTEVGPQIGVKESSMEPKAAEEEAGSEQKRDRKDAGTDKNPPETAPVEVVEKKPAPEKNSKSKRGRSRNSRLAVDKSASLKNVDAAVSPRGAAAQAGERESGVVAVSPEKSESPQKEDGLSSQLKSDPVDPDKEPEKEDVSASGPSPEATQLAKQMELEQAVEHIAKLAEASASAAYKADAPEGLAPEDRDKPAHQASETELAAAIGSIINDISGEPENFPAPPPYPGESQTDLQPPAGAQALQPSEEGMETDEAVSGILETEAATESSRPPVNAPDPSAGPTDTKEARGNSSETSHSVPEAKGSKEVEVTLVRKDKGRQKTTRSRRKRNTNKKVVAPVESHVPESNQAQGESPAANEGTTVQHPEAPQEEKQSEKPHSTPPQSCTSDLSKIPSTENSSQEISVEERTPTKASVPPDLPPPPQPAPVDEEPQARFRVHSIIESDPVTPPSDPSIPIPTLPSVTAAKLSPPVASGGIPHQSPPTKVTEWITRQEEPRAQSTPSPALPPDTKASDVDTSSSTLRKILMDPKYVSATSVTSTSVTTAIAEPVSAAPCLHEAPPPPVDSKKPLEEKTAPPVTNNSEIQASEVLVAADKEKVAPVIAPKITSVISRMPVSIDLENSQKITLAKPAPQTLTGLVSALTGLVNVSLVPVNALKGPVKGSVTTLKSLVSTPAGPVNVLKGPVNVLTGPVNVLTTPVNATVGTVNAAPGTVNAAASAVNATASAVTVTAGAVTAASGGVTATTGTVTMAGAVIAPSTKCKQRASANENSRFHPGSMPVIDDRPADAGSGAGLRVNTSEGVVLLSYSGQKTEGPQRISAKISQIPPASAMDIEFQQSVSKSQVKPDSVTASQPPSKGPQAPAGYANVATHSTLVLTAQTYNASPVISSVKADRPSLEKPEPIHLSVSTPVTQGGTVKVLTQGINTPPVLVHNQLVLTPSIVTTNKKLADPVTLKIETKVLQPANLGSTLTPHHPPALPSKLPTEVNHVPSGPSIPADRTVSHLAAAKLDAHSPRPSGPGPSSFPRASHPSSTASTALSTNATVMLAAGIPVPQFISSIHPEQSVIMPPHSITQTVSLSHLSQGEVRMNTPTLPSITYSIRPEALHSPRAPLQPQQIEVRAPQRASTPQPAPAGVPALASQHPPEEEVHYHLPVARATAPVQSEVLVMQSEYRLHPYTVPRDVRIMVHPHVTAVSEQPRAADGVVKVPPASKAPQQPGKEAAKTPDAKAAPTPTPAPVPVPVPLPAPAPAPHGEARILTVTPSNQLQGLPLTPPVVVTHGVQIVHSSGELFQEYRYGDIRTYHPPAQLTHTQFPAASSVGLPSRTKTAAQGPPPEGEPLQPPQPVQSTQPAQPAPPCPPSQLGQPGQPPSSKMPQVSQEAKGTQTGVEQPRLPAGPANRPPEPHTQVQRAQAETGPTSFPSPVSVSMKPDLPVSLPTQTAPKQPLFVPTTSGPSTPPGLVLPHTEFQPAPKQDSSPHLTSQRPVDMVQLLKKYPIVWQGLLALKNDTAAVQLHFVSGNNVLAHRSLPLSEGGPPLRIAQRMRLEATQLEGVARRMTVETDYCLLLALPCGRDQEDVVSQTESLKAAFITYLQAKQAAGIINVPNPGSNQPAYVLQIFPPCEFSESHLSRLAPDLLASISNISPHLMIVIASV
UniProt Q9Y5U2: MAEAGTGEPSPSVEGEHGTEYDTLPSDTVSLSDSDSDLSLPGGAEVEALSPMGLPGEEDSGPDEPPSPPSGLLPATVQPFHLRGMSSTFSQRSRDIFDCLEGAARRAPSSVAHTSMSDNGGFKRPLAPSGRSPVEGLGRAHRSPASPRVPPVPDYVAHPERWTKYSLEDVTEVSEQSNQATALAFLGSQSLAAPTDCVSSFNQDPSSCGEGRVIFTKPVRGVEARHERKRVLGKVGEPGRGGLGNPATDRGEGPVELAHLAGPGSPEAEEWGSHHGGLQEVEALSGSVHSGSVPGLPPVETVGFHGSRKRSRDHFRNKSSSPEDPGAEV
UniProt O95218: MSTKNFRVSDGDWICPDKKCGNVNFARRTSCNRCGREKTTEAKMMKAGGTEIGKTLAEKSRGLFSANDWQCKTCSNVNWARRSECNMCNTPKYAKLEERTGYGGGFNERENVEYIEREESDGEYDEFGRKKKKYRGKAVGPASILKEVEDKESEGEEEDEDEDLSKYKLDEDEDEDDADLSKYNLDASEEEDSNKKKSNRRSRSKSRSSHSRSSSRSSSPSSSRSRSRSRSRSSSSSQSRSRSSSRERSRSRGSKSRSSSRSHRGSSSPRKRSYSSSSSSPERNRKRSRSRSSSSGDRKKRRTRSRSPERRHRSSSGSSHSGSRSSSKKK

Biological target: T1, CD2 Binding Protein 2 (CD2BP2/U5-52K), FLAG-tagged (human) (UniProt O95400)
T1 sequence: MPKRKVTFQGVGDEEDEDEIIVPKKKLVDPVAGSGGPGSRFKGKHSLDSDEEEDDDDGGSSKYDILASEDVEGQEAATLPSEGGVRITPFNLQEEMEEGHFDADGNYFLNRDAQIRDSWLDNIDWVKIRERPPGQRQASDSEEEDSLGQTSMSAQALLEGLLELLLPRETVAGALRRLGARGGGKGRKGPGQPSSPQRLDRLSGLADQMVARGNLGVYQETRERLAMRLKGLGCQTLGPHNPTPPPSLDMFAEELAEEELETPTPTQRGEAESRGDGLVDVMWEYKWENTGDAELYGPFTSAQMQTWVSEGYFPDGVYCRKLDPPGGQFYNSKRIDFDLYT
Test: cross-linking; anti-FLAG IP of CD2BP2-FLAG from HEK293T CD2BP2-/- lysate (~100 mg protein), on-bead crosslinking with DSSO, tryptic digest, LC-MS2-MS3, XlinkX, 1 % FDR; two technical and two biological replicates

binding	Substance
binds	Brr2 - SNRNP200 (from UniProt O75643 1-2136)
binds	DYNC1I2 (from UniProt Q13409 1-638)
binds	IK - RED (from UniProt Q13123 1-557)
binds	SPEN (from UniProt Q96T58 1-3664)
binds	TSSC4 (from UniProt Q9Y5U2 1-329)
binds	ZRANB2 (from UniProt O95218 1-330)
